Reference: patent US9451775B2, “Heterocyclic compounds as pesticides” (Bayer Intellectual Property GmbH, priority 2008, dated 2016)
Some of these results come from one statement about several compounds together.

System: Meloidogyne incognita
Experiment: Meloidogyne test (spray treatment)
Format: in vivo
Details: application rate of 20 ppm; lettuce in sand

SMILES: c1cnc(-c2cccc(-c3cnc(-c4cccnc4)s3)n2)nc1 [Preparation Example 5, 2-[6-(2-Pyridin-3-ylthiazol-5-yl)pyridin-2-yl]pyrimidine]
- activity (nematicide action in %, formation of galls): ≥ 80%

SMILES: CCc1cccc(-c2nccc(-c3sc(-c4cccnc4)nc3C)n2)n1 [compound 57]
- activity (nematicide action in %, formation of galls): ≥ 80%

SMILES: CCCc1cccc(-c2nccc(-c3sc(-c4cccnc4)nc3C)n2)n1 [compound 58]
- activity (nematicide action in %, formation of galls): ≥ 80%

SMILES: COCc1nccc(-c2sc(-c3cccnc3)nc2C)n1 [compound 61]
- activity (nematicide action in %, formation of galls): ≥ 80%

SMILES: Cc1nc(-c2cccnc2)sc1-c1ccn(C(=S)NC2CC2)n1 [compound 104]
- activity (nematicide action in %, formation of galls): ≥ 80%

SMILES: COCCCNC(=S)n1ccc(-c2sc(-c3cccnc3)nc2C)n1 [compound 135]
- activity (nematicide action in %, formation of galls): ≥ 80%
